# Assay results published in paper PMC7819943, “Rice protein-binding microarrays: a tool to detect cis-acting elements near promoter regions in rice”.
# This is one part of the list.
# Molecular target: T1, OsSMF1 (Oryza sativa, UniProt Q6ZLB0 1-436)
# T1 sequence: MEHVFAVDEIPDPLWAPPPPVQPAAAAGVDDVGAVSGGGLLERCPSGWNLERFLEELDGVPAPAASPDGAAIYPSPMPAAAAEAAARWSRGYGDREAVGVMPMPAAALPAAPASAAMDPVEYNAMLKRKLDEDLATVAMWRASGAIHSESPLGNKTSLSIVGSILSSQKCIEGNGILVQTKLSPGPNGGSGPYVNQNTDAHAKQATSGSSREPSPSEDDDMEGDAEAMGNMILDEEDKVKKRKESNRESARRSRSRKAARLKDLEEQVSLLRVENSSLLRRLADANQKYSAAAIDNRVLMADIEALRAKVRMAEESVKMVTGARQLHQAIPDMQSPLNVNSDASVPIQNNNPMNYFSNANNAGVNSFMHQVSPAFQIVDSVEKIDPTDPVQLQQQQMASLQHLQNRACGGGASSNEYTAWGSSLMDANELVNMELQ
# Assay: protein-binding microarray (RPBM); PBS, 2% BSA, 51.3 ng/ul salmon testes DNA, 50 uM zinc acetate, 200 nM TF, 25 C, 1 h; high values mean tight binding
# Conditions: protein: recombinant; tags: N-terminal polyhistidine and DsRed monomer fusion (pET32a); chain copies: 2; label: CyDye5-dUTP incorporated in the synthesized complementary strand; 3' TTTTT single-stranded linker to array surface; dsDNA, one strand shown
# Summary of the method: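 For the binding signal, per-feature fluorescence intensity was read in arbitrary units on an Axon 4000B scanner. Before scanning, a 2% BSA-blocked custom Agilent array made double-stranded with Cy5-dUTP was washed after 1 h at 25 °C with 200 nM protein and 50 µM zinc acetate. The proteins were Ni–NTA-purified transcription factors with N-terminal polyhistidine and DsRed fusions, expressed in E. coli BL21-CodonPlus.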
row,Sequence,binding signal
1,TTTCTCATGCCATGCACGAATCTCAGTGTGGCGTGAATTTCGGAGTCACCTAGTGCAG,3400 fluorescence intensity (a.u.)
2,CAAGAGTTTCGGATACGCACGCCACGCGCAAACCCGATCTCGGAGTCACCTAGTGCAG,3150 fluorescence intensity (a.u.)
3,TTTTGACCCGGTTTTAGCCTACGTGACGGCTAAGTCAGCGCGGAGTCACCTAGTGCAG,4480 fluorescence intensity (a.u.)
4,GAGATCTGCTTAACTCCAGTGCAGGTCCAAAACTCGCCTTCGGAGTCACCTAGTGCAG,29200 fluorescence intensity (a.u.)
5,GTTTGTGTGAGTTATTGGACACCTCCTACAAATTCTAAGTCGGAGTCACCTAGTGCAG,3670 fluorescence intensity (a.u.)
6,CTGCAGGCCATGCAGGCGATGCTGTTCCGCTCCACCCGCCCGGAGTCACCTAGTGCAG,3410 fluorescence intensity (a.u.)
7,TTTCTAATCGGACGGCGCGCAAGTCCGTGCACTCGTGGCACGGAGTCACCTAGTGCAG,4750 fluorescence intensity (a.u.)
8,CGTTATAGCATGAGCGTCATGGATGATGCATTGTAATGTTCGGAGTCACCTAGTGCAG,3980 fluorescence intensity (a.u.)
9,CAAGCCAAGTCTGAAGAAGAAGAACTAGTCATCGCTTGCCCGGAGTCACCTAGTGCAG,3820 fluorescence intensity (a.u.)
10,ACCCTCGCCACCGTCCCCGCCTCCGTCGACAGCAGCCCGCCGGAGTCACCTAGTGCAG,3160 fluorescence intensity (a.u.)
11,GGGATAGCAGGACACGTGTGTATAGCTGCTGCGCCTGCCTCGGAGTCACCTAGTGCAG,9260 fluorescence intensity (a.u.)
12,CGCCCGCGAAGGCCGCCGCGCCACGCGTGAACTTCTCCTTCGGAGTCACCTAGTGCAG,3190 fluorescence intensity (a.u.)
13,GGTCAAATGCCGACGCGGCCTTCGCATGCATATCCGCTTCCGGAGTCACCTAGTGCAG,4630 fluorescence intensity (a.u.)
14,TCACGAGCCGACACGTGTCTCCTGACGTGGTACCCTTTCCCGGAGTCACCTAGTGCAG,21900 fluorescence intensity (a.u.)
15,AAATGTGACATCAGCTATGTGGCCAAAAGGGTCCCCTAGGCGGAGTCACCTAGTGCAG,3820 fluorescence intensity (a.u.)
16,TGAAATCGTCACCAAACACGTCTTCACCTTCCATAAATCCCGGAGTCACCTAGTGCAG,4810 fluorescence intensity (a.u.)
17,GAGCGACGACGATGGGAGAGAGCGGGAGGCGGCGGCGGTGCGGAGTCACCTAGTGCAG,29800 fluorescence intensity (a.u.)
18,AATGGTGGGCTAGATGACCTGGATTCAAAATATCACTCCTCGGAGTCACCTAGTGCAG,4100 fluorescence intensity (a.u.)
19,AAAGAGGCACAGATGTGGATAGTGATGCTAAAGGCAGCTTCGGAGTCACCTAGTGCAG,7990 fluorescence intensity (a.u.)
20,TGAAGTGCACGATAGCGTCGTCCGTTGTGTGACTCATCAGCGGAGTCACCTAGTGCAG,5460 fluorescence intensity (a.u.)
21,TTAGCAACCTATCGTCATAGAGAGACCCAATGAACCCTTGCGGAGTCACCTAGTGCAG,3860 fluorescence intensity (a.u.)

# Individual results from above.
# For binding signal, GAGCGACGACGATGGGAGAGAGCGGGAGGCGGCGGCGGTGCGGAGTCACCTAGTGCAG is listed with 29800 fluorescence intensity (a.u.)
# For binding signal, TGAAATCGTCACCAAACACGTCTTCACCTTCCATAAATCCCGGAGTCACCTAGTGCAG is listed with 4810 fluorescence intensity (a.u.)

# The listing continues.

row,Sequence,binding signal
1,CTCATGTTGTTTGACGGTTTGACTCTCCTAGTTTATCATCCGGAGTCACCTAGTGCAG,3370 fluorescence intensity (a.u.)
2,TTCGTGCCGTCCTTTTACAATTTTATACGTGTCTTATTACCGGAGTCACCTAGTGCAG,4830 fluorescence intensity (a.u.)
3,GTCCATATATCCGATGTGACACGCCAACACTTTTCGTATCCGGAGTCACCTAGTGCAG,4090 fluorescence intensity (a.u.)
4,CTCCAACCCGCTCCGTGAGATGACGTCCACACAGTGGGATCGGAGTCACCTAGTGCAG,7010 fluorescence intensity (a.u.)
5,GATTTCGATTTTGTGGCCTCGATTTTGACTTGAGAAGGCACGGAGTCACCTAGTGCAG,3480 fluorescence intensity (a.u.)
6,CGACCGTCAACAGTAACGCACCCGCGTCATTCCAATAGAGCGGAGTCACCTAGTGCAG,3910 fluorescence intensity (a.u.)
7,TTTTCATTTTAGTGCCACGTAAGCACCACATCGATGCCACCGGAGTCACCTAGTGCAG,41200 fluorescence intensity (a.u.)
8,CCACAAGTGACCTGTGGCACATGCATCCGTGGCATTGCATCGGAGTCACCTAGTGCAG,6070 fluorescence intensity (a.u.)
9,TTTTAGGTTGAGCTGTGACATAATATGTAGCCTGTGCATTCGGAGTCACCTAGTGCAG,3860 fluorescence intensity (a.u.)
10,AGGGTAGTGAGAGAGAGGATGACATGTGGGACCTACATGTCGGAGTCACCTAGTGCAG,3540 fluorescence intensity (a.u.)
11,CTTCTTCTTGTGATGCTTATATATGACTATGTATGTAGTGCGGAGTCACCTAGTGCAG,3940 fluorescence intensity (a.u.)
12,TATGGACACCATCCTTGTCATTGGGTTAGGACTGGCCTTACGGAGTCACCTAGTGCAG,3630 fluorescence intensity (a.u.)
13,CGAGTGGCGCAGGCGACGGCGGCGGTTGCTGAGGTGGGCACGGAGTCACCTAGTGCAG,5180 fluorescence intensity (a.u.)
14,TAACCCATGGCTAGATATATTAATTAAGTTAAGTGAAACCCGGAGTCACCTAGTGCAG,22600 fluorescence intensity (a.u.)
15,ACCGGGTTAGCACCGCCACGTCAGCACCACATCAGCAAAACGGAGTCACCTAGTGCAG,20000 fluorescence intensity (a.u.)
16,ATTTGATGCATCTCCTTGCGTGCCAGCGTATACCCTCGTCCGGAGTCACCTAGTGCAG,4760 fluorescence intensity (a.u.)
17,CCATCCCTTTCACTGTCGTCGCGGCCTCCCTGACCGCGCCCGGAGTCACCTAGTGCAG,3190 fluorescence intensity (a.u.)
18,GTAATCTGTAGTTTCTGTACCCAAGTCACCTCCAACCAGGCGGAGTCACCTAGTGCAG,3820 fluorescence intensity (a.u.)
19,CAAACTCATCATCCAGAGTCCAGACTCATCTCTACTTCCACGGAGTCACCTAGTGCAG,4050 fluorescence intensity (a.u.)
20,TGATAATAATTATTTCTTGGTCTTTAAATTAAGGGTGATTCGGAGTCACCTAGTGCAG,14800 fluorescence intensity (a.u.)
21,CGCTAGGAGGATGGTTAGCAAACAGTAATTTCGTGTGACACGGAGTCACCTAGTGCAG,3600 fluorescence intensity (a.u.)
